These are yes or no findings as the source states them, for the method shown. Some entries that bind do so weakly or less than the wild type. For some of these results: Where a sequence is shown, tags or fusion partners need not be part of it.
Columns and labels:
1mer[656:] (human) = 1mer[656:] (human) (UniProt Q96Q06); assay: thioflavin T
MBP-4x1mer[260:] (human) [1] = target: MBP-4x1mer[260:] (human) (UniProt Q96Q06); assay: thioflavin T
MBP-4x1mer[260:] (human) [2] = target: MBP-4x1mer[260:] (human) (UniProt Q96Q06); assay: cryo-EM of fibrils
MBP-4x1mer[260:] (human) [3] = target: MBP-4x1mer[260:] (human) (UniProt Q96Q06); assay: negative-stain EM of fibrils
1mer[755:] (human) = 1mer[755:] (human) (UniProt Q96Q06); assay: thioflavin T
MBP-2x1mer[260:] (human) = MBP-2x1mer[260:] (human) (UniProt Q96Q06); assay: negative-stain EM of fibrils
MBP-3x1mer[260:] (human) = MBP-3x1mer[260:] (human) (UniProt Q96Q06); assay: negative-stain EM of fibrils

B1: 1mer[656:] (peptide, UniProt Q96Q06 656-688)
peptide: TQNIATGTKNTFGSGVTSAVNVAKGAAQTGVDT
1mer[656:] (human)
  binding: binds

B2: 4x1mer[260:] released from MBP-4x1mer[260:] by TEV protease (domain or fragment, human, UniProt Q96Q06 260-292, looked up)
chain: SKTVLTGTKDTVCSGVTGAMNVAKGTIQTGVDTSKTVLTGTKDTVCSGVTGAMNVAKGTIQTGVDTSKTVLTGTKDTVCSGVTGAMNVAKGTIQTGVDTSKTVLTGTKDTVCSGVTGAMNVAKGTIQTGVDT
MBP-4x1mer[260:] (human) [1]
  binding: binds
MBP-4x1mer[260:] (human) [2]
  binding: binds
MBP-4x1mer[260:] (human) [3]
  binding: binds

B3: 1mer[755:] (peptide, UniProt Q96Q06 755-787)
peptide: TKSVLTGTKDAVSTGLTGAVKLAKGTVQTGMDT
1mer[755:] (human)
  binding: no binding (tested: 1 mg/ml)

B4: MBP-2x1mer[260:] (domain or fragment, UniProt Q96Q06 260-292; Q96Q06 260-292)
chain: SKTVLTGTKDTVCSGVTGAMNVAKGTIQTGVDTSKTVLTGTKDTVCSGVTGAMNVAKGTIQTGVDT
MBP-2x1mer[260:] (human)
  binding: no binding

B5: MBP-3x1mer[260:] (domain or fragment, UniProt Q96Q06 260-292; Q96Q06 260-292; Q96Q06 260-292)
chain: SKTVLTGTKDTVCSGVTGAMNVAKGTIQTGVDTSKTVLTGTKDTVCSGVTGAMNVAKGTIQTGVDTSKTVLTGTKDTVCSGVTGAMNVAKGTIQTGVDT
MBP-3x1mer[260:] (human)
  binding: no binding
